Results from publication PMC6925144, “A prospective compound screening contest identified broader inhibitors for Sirtuin 1” (Scientific Reports, 2019).
Over roughly 3,200 compounds, “TSA(with NAD+) / Primary screening (TSA) / delta Tm (K)” has its median near -0.04; the highest 2% begin near 0.37. The list shows a part of the results.

Protein sequences, listed by entry. Tags and fused reporters are not part of them. Residues count along the entry.
UniProt Q96EB6, 2-747 limits assumed: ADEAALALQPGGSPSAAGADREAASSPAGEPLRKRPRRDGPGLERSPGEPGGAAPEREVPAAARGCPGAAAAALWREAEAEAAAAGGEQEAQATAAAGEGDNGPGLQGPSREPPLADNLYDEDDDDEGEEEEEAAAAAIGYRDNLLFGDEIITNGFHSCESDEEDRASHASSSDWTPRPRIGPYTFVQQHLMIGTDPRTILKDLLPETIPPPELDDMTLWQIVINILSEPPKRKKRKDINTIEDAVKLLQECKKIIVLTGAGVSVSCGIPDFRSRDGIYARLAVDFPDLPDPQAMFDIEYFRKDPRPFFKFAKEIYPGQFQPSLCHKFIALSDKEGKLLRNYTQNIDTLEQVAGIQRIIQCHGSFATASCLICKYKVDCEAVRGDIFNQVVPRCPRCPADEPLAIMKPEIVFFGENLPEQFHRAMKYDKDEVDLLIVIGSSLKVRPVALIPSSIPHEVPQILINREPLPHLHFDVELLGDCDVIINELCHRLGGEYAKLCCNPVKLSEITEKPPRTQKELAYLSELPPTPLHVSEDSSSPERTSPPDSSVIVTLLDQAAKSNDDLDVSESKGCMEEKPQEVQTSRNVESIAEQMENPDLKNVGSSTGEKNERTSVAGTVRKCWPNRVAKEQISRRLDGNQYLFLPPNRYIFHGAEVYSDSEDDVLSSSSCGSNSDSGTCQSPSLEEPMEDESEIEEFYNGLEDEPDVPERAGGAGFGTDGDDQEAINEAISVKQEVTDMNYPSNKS

Target: NAD-dependent deacetylase Sirtuin 1 (human, UniProt Q96EB6)
Test: primary screen, delta tm
Parameters: single well (n = 1, as 'the same TSA')
Conditions: 10 µM

Structure (SMILES)	TSA(with NAD+) / Primary screening (TSA) / delta Tm (K)
O=C(CC12CC3CC(CC(O)(C3)C1)C2)NCc1cc(-c2ccccc2)on1	-0.01
Cc1cc(C(=O)CN2CCCC2c2cccn2C)c(C)n1-c1ccc(S(N)(=O)=O)cc1 (centres unmarked)	-0.01
O=C(CC12CC3CC(CC(C3)C1)C2)NN/C=C1/C(=O)N(Cc2ccccc2)C(=O)c2ccccc21	0.19
Cc1nc(C)c(CNC(=O)N2CC(C)c3ccccc32)s1 (centres unmarked)	-0.11
COc1ccccc1-c1noc(C(C)NC(=O)C(C)NC(C)=O)n1 (centres unmarked)	-0.01
CN(C(=O)Cc1ccc(NC(=O)NCc2ccc(-n3cncn3)nc2)cc1)c1ccccc1	-0.06
Cc1nc(-c2ccsc2)sc1C(=O)NCc1ccc(N2CCOCC2)c(F)c1	0.06
COc1ccc2c(C=C3C(=O)NC(=O)NC3=O)cccc2c1	-0.22
O=C(Oc1ccccc1Cc1ccccc1)c1ccc2c(c1)S(=O)(=O)c1ccccc1C2=O	0.15
Cc1nc(CN2CCN(CC(=O)N(C)Cc3cccs3)CC2)no1	-0.06
COC(C)C(O)C(=O)O (centres unmarked)	-0.09
CCOc1ccc(-n2c(SCC(=O)c3[nH]c(C)c(C(C)=O)c3C)nc3ccccc3c2=O)cc1	0.01
COc1ccc(NC(=O)c2cccc(OCc3c(C)noc3C)c2)cc1OCc1cn2ccccc2n1	0.03
Cc1ccc(Nc2nnc(SCC(=O)Nc3cc(C)c(C)cc3[N+](=O)[O-])s2)cc1	0.11
O=C(CCc1ccccc1)NC1CCN(c2ccc([N+](=O)[O-])c3cccnc23)CC1	-0.21
CCN(CC)CCNC(=O)c1ccc(NC(=O)CC2CCCC2)cc1	0.01
CC(C)Cn1c(SCC(=O)Nc2sc3c(c2C(N)=O)CCC3)nnc1N1CCOCC1	-0.18
CCOc1ccc(C2C(C(=O)c3ccc(F)cc3)=C(O)C(=O)N2CCCN2CCOCC2)cc1OC (centres unmarked)	0.02
CC(=O)NC1CCCN(c2c(C)c(C)nc3ccccc23)C1 (centres unmarked)	-0.01
CNC1CCc2[nH]c3ccc(Cl)cc3c2C1 (centres unmarked)	-0.01
COc1cc(NC(C)C(=O)Nc2ccc(C(N)=O)cc2)cc(OC)c1OC (centres unmarked)	-0.15
CCc1ccc(CNC(=O)Nc2ccncc2C)cc1	-0.11

Structure (SMILES)	TSA(with NAD+) / Primary screening (TSA) / delta Tm (K)
CN(c1ccccc1)S(=O)(=O)c1ccc(C(=O)Nc2cccc(S(=O)(=O)N3CCOCC3)c2)cc1	-0.01
CCc1ccc(OCC(=O)NNC(=O)Cc2ccc(OC)cc2)cc1	0.16
O=C(Cc1c[nH]c2ccccc12)Nc1ccc(N2CCN(Cc3ccccc3)CC2)cc1	-0.23
CN1CCN(CCc2cccc(NC(=O)C3CC3c3ccc4ccccc4c3)c2)CC1 (centres unmarked)	-0.03
COc1ccc(N2CCN(c3ncnc4sc5c(c34)CCC5)CC2)cc1	-0.19
c1ccc(-c2nc(CSc3nnc(NCc4ccco4)s3)cs2)nc1	-0.03
COc1cc(CN(C)C(=O)c2cccc(S(=O)(=O)N3CCCC3)c2)ccc1OCc1ccccc1	-0.26
Cc1ccc(C(=O)Nc2ccc(NC(=O)NCC3CCCO3)cc2)cn1 (centres unmarked)	0.55
O=C1/C(=C/c2ccc(Br)cc2)Oc2cc(O)ccc21	0.27
COc1cccc(/C=C2/COc3ccc(Br)cc3C2=O)c1OC(F)F	0.25
O=C(CCc1c[nH]c2ccccc12)Nc1ccc2nc[nH]c(=O)c2c1	0.27
COc1ccc(N(C)S(=O)(=O)c2cccc(C(=O)Nc3ccccc3-c3ccccc3)c2)cc1	0.17
CCOC(=O)C(C)N (centres unmarked)	-0.21
Cc1cc(=O)oc2cc(OCC(=O)N3CCc4ccccc4C3)ccc12	-0.12
NC(=O)Cn1nc(-n2cncn2)ccc1=O	-0.22
NC(=S)c1ccc(C(=O)NC2CCCc3cc(OC(F)F)ccc32)cc1 (centres unmarked)	-0.03
O=C(Cn1cnc2sc3c(c2c1=O)CCCCC3)N1CCc2ccccc21	0.08
N#C/C(=C\c1[nH]c2ccccc2c1Cl)C(N)=O	-0.09
O=C(Nc1ccc2c(c1)OC1(CCCC1)O2)c1cc(O)nc2ccccc12	-0.03
CCNC(=O)CSc1nnc(-c2c[nH]c3ccccc23)n1Cc1ccco1	-0.21
CC(C)Cn1c(SC(C)C(=O)Nc2sc3c(c2C(N)=O)CCC3)nnc1N1CCOCC1 (centres unmarked)	0.09
CC(NC(=O)c1ccc2c(c1)C(=O)c1ccccc1-2)C1CC2CCC1C2 (centres unmarked)	-0.06

Single values from above:
`Cc1ccc(C(=O)Nc2ccc(NC(=O)NCC3CCCO3)cc2)cn1` (centres unmarked) – TSA(with NAD+) / Primary screening (TSA) / delta Tm (K): 0.55
`COc1ccc(N(C)S(=O)(=O)c2cccc(C(=O)Nc3ccccc3-c3ccccc3)c2)cc1` – TSA(with NAD+) / Primary screening (TSA) / delta Tm (K): 0.17
